# These are yes or no findings as the source states them, for the method shown. Binding seen in cells or lysates may run through a third protein. Some entries that bind do so weakly or less than the wild type.
# Sequences of proteins named here, by UniProt entry; tags and fusion partners are left off.
# UniProt Q8BTW9: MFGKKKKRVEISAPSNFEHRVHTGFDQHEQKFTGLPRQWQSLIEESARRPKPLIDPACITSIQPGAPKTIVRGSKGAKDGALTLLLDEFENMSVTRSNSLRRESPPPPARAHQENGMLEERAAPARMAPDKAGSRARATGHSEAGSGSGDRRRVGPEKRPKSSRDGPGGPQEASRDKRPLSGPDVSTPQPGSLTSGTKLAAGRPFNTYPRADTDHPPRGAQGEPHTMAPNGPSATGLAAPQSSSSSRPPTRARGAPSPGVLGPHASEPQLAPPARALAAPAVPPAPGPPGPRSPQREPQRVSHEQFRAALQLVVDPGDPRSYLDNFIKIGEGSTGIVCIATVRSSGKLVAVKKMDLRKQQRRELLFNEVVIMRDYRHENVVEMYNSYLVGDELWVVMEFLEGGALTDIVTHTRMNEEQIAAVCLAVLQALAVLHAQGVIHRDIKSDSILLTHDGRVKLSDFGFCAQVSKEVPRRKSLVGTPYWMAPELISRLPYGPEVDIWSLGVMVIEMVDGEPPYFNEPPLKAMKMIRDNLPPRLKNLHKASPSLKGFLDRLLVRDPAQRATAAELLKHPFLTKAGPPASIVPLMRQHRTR
# UniProt P11404: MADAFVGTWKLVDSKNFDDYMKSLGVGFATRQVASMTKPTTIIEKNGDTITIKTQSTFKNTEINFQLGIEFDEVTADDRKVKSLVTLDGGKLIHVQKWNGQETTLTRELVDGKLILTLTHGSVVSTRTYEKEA
# Assays:
# [1] = biological target: p21-activated kinase 4 (Pak4) (mouse (endogenous in TSPCs and tendon tissue of C57BL/6 mice)) (UniProt Q8BTW9); test: co-IP; lysates of osteogenic induced TSPCs with PBS or NecroMφ-EVs; magnetic beads with anti-Pak4 and Fabp3 antibodies or normal rabbit IgG, overnight at 4 °C; blot
# [2] = biological target: p21-activated kinase 4 (Pak4) (mouse (endogenous in TSPCs and tendon tissue of C57BL/6 mice)) (UniProt Q8BTW9); test: co-IP; in vivo study, burn/tenotomy mice and sham group (Fig. S8D)
substance,measurement,setting,value
fatty acid binding protein 3 (Fabp3) (from UniProt P11404 1-133),binding,[1],binds
same,binding,[2],binds
